Assay results taken from patent publication US20040053231A1.
Results are given in words; binding and its absence hold for the method and conditions named. Some binding calls cover weakened binding; strength is not graded here.

Protein sequences, listed by entry. Tags and fused reporters are not part of them. Lines headed by an entry give the natural chain unless they say otherwise; changes in a name come on top.
UniProt P04386: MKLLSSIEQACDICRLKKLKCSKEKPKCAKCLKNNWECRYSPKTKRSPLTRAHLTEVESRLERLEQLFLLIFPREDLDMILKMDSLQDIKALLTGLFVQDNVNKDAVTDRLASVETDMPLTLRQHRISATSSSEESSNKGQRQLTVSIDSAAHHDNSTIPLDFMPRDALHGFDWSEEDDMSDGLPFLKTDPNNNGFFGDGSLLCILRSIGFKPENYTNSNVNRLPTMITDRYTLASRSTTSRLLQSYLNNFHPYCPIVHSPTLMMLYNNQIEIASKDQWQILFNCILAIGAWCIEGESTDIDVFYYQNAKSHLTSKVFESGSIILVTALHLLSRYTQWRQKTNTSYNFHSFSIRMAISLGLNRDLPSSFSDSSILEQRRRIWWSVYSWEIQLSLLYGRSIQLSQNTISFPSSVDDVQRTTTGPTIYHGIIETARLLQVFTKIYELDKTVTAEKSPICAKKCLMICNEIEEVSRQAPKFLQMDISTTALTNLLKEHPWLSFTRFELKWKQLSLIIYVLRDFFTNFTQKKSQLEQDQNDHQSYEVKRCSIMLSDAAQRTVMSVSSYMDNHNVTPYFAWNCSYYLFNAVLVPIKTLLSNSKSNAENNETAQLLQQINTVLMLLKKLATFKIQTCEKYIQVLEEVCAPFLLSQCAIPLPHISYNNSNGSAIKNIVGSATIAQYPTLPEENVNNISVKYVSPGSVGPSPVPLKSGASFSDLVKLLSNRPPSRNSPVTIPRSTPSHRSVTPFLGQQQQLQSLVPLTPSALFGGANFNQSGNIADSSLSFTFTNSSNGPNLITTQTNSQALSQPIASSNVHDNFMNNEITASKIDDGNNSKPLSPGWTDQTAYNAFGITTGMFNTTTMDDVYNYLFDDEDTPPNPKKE
UniProt Q96RK1: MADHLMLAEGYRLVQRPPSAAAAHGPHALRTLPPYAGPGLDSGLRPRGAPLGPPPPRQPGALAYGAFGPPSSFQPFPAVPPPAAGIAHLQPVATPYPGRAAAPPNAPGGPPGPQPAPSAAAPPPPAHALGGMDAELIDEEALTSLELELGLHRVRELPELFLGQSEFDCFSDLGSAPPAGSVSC

Experiments:
GAL4-p300 full-length = GAL4-p300 full-length (UniProt P04386); assay: mammalian two-hybrid, Hep3B cells (FIG. 2C)
GAL4-p300(1-596) = GAL4-p300(1-596) (UniProt P04386); assay: mammalian two-hybrid, Hep3B cells (FIG. 2C)
GAL4-p300(1-743) = GAL4-p300(1-743) (UniProt P04386); assay: mammalian two-hybrid, Hep3B cells (FIG. 2C)
[1] = molecular target: GAL4-CH1 (residues 300-528 of p300 fused to the DNA-binding domain of GAL4) (UniProt P04386); assay: mammalian two-hybrid, Hep3B cells
[2] = molecular target: GAL4-CH1 (residues 300-528 of p300 fused to the DNA-binding domain of GAL4) (UniProt P04386); assay: mammalian two-hybrid, Hep3B cells (FIG. 2B)
[3] = molecular target: GAL4-CH1 (residues 300-528 of p300 fused to the DNA-binding domain of GAL4) (UniProt P04386); assay: mammalian two-hybrid

Measured: binding

VP16-HCITEDX (from UniProt Q96RK1 1-184)
binds: all assays above
